Consider one substance from publication PMC12900513.

Amino acid sequences for entries named in this document (tags omitted). Residues count along the entry.
UniProt P98161, residues 3118-3233: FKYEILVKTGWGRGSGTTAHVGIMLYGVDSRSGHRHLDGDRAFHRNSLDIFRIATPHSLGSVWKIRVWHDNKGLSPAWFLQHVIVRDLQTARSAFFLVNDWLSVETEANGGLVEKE
UniProt Q9H694: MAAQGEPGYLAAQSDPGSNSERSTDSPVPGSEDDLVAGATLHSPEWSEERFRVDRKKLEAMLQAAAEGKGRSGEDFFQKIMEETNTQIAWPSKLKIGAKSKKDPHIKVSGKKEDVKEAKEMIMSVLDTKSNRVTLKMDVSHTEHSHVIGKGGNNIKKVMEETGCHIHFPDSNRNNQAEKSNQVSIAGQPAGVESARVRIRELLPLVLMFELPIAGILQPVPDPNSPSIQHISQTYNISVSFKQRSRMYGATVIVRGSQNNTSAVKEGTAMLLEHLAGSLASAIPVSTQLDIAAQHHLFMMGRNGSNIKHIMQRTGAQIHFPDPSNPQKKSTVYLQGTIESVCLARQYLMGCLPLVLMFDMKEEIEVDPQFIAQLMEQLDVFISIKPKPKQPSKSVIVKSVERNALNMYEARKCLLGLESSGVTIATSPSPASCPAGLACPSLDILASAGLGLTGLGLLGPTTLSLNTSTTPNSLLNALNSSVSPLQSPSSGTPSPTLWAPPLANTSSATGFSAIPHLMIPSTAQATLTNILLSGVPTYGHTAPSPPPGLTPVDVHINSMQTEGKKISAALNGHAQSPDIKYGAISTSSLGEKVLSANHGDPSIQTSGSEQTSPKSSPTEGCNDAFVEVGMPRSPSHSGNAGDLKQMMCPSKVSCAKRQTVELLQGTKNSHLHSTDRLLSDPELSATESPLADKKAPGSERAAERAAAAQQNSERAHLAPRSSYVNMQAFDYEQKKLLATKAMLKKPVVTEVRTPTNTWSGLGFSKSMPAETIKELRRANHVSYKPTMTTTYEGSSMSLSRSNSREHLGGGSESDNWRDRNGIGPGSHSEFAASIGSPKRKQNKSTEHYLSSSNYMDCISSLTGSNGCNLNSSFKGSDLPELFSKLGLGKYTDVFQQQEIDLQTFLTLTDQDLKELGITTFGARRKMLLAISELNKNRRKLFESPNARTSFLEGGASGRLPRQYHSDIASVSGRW

No constants are given. Whether binding was seen depends on the method and setting. Binding seen in cells or lysates may run through a third protein. These calls come from enrichment with a bait or labelling near it, and not all partners need be listed.

The assay concerns the target Polycystin-1 PLAT domain (Polycystin-1, Lipoxygenase, Alpha-Toxin)-YFP fusion (UniProt P98161). Description: affinity purification with mass spectrometry; pilot experiments: pulldown from cells stably expressing PLAT-YFP, mass spectrometry.

Take “BICC1 found in the PLAT-YFP pulldown (from UniProt Q9H694 1-974)”: the binding result was “binds”.
